# Source: patent US6849639B2, “Integrin inhibitors and their methods of use” (Amgen Inc., priority 1999, dated 2005)
# Counter-ions that a name gives are not always drawn. Some results were stated once for a whole list of compounds, not compound by compound. At least one compound was matched to its structure with a doubt left.
# Target: integrin αvβ3, αvβ5 or αIIbβ3
# Assay: Solid phase integrin binding assay (Vitronectin-Ru or Fibrinogen-Ru, integrin coated paramagnetic beads)
# Parameters: species or system human
# Details: the integrin is not specified for the stated bound
smiles,measurement,value
"O=C(NCc1ccccc1)Nc1cccc(N2CC(C(=O)NC[C@H](NS(=O)(=O)c3ccccc3)C(=O)O)CC2=O)c1 (stereo partly drawn) [Example 62, L-2-(phenylsulfonylamino)-3-{(5-oxo-1-(3-(benzylamino)carbonylamino}phenyl)pyrrolidin-3-yl)carbonylaminolpropionic acid, sodium salt]",IC50,≤ 30 µM
